Experimental data published in paper PMC12317070.
These are yes or no findings as the source states them, for the method shown. Binding can be weak; no strength is given. For some assays here: Binding seen in cells or lysates may run through a third protein.

Chains of the proteins cited; added tags and fusions are not shown. Lines headed by an entry give the natural chain unless they say otherwise; changes in a name come on top. Residues count along the entry.
UniProt P56962, residues 1-224: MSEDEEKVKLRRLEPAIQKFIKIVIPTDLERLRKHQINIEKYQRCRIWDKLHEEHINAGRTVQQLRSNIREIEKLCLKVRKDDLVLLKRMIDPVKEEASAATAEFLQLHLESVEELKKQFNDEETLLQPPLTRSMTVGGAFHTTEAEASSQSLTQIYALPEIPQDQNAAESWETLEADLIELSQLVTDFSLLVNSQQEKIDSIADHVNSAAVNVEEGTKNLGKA
UniProt O95721: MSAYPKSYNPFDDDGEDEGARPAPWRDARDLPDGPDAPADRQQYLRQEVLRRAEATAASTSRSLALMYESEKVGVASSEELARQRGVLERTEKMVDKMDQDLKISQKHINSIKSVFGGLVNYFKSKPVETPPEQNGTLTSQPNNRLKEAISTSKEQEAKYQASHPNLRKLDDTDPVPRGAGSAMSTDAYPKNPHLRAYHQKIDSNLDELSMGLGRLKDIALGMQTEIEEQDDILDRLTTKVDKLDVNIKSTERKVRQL
UniProt O70404: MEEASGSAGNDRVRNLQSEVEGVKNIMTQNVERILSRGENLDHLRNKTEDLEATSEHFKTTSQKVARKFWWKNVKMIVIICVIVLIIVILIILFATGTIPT

Columns and labels:
[1] = target: GST-STX17 (amino acids 1-224) (UniProt P56962); assay: pull-down; both purified
[2] = target: SNAP29 (untagged, purified) (UniProt O95721); assay: co-IP; both purified

binding [1]: binds | binding [2]: binds
Substance: VAMP8 (purchased) (from UniProt O70404)
